According to patent US20130210852A1, “METHODS FOR TREATING INFECTION” (priority 2010, published 2013):
For at least one compound, name, drawing or mass did not settle the structure.

Test system: HEp-2 cells
Test: Cytokine arrays of HEp-2 supernatants (Panomics)
Details: antibiotic 64 μg/ml, 24 h

Compound: C[C@H]1c2cccc(O)c2C(=O)C2=C(O)[C@]3(O)C(=O)C(C(N)=O)=C(O)[C@@H](N(C)C)[C@@H]3[C@@H](O)[C@@H]21 [doxycycline]
- cytokine profile of HEp-2 supernatants: GM-CSF, MIP4, MIP5, MMP3, RANTES, TGF-b, IFN-g, TNFRI, TNFRII, VCAM-1, VEGF, IL-4, IL-6, IL-8, IL-12 (p40), and IL-15
